The test has as its target CAV1 (human (endogenous in MIA PaCa-2 and PANC1)) (UniProt Q03135). Kind of test: co-IP; Pierce Co-Immunoprecipitation Kit; MIA PaCa-2 and PANC1 cells lysed in mild lysis buffer, lysates on a column coated with 5 µg primary antibody, overnight at 4 °C; eluates read by Western blot; which antibody precipitated is not stated.

Amino acid sequences for entries named in this document (tags omitted).
UniProt Q03135: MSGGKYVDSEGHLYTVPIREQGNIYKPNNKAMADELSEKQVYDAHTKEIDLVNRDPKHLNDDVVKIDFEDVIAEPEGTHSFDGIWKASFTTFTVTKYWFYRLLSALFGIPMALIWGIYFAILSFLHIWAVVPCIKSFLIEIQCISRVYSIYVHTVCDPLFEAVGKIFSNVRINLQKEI

No constants are given. Whether binding was seen depends on the method and setting. In cells and extracts the contact can be indirect.

B1: SLC40A1 (protein, UniProt Q9NP59 1-571)
chain: MTRAGDHNRQRGCCGSLADYLTSAKFLLYLGHSLSTWGDRMWHFAVSVFLVELYGNSLLLTAVYGLVVAGSVLVLGAIIGDWVDKNARLKVAQTSLVVQNVSVILCGIILMMVFLHKHELLTMYHGWVLTSCYILIITIANIANLASTATAITIQRDWIVVVAGEDRSKLANMNATIRRIDQLTNILAPMAVGQIMTFGSPVIGCGFISGWNLVSMCVEYVLLWKVYQKTPALAVKAGLKEEETELKQLNLHKDTEPKPLEGTHLMGVKDSNIHELEHEQEPTCASQMAEPFRTFRDGWVSYYNQPVFLAGMGLAFLYMTVLGFDCITTGYAYTQGLSGSILSILMGASAITGIMGTVAFTWLRRKCGLVRTGLISGLAQLSCLILCVISVFMPGSPLDLSVSPFEDIRSRFIQGESITPTKIPEITTEIYMSNGSNSANIVPETSPESVPIISVSLLFAGVIAARIGLWSFDLTVTQLLQENVIESERGIINGVQNSMNYLLDLLHFIMVILAPNPEAFGLLVLISVSFVAMGHIMYFRFAQNTLGNKLFACGPDAKEVRKENQANTSVV
As for B1, the binding result is “no binding”.

(Values after publication PMC11968908.)
